# In article PMC5662892:
# Chains of the proteins cited; added tags and fusions are not shown.
# UniProt P22336: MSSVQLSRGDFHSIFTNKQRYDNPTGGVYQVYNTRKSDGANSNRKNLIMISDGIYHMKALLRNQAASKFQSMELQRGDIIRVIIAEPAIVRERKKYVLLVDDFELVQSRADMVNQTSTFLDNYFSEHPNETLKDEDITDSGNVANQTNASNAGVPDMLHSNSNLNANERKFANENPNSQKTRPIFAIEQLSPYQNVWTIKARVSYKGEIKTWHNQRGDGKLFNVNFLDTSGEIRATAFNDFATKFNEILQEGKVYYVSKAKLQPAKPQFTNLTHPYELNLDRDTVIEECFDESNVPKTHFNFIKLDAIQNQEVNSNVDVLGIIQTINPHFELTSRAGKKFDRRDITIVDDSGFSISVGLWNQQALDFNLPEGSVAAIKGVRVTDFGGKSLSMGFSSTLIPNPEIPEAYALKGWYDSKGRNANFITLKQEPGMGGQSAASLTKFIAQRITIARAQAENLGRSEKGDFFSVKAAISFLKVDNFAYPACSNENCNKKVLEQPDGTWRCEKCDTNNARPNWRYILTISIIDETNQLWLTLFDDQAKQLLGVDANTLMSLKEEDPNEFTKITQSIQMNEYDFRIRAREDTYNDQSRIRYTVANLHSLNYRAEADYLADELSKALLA
# UniProt P26754: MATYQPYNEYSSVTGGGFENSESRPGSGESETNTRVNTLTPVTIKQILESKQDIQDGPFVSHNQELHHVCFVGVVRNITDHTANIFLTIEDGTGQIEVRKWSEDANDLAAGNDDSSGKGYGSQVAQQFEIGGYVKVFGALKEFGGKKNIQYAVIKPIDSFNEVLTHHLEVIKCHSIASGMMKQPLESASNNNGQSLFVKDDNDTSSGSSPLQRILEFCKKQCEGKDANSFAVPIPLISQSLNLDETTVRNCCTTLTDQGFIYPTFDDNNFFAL
# UniProt P26755: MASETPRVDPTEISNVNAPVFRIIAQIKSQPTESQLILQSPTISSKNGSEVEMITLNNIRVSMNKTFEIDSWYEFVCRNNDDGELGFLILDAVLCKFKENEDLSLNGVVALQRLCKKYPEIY
# No constants are given. Whether binding was seen depends on the method and setting. Some results given as binding are weak or reduced against the parent protein; the word gives no strength.
# T1: Orc1 (subunit of the origin recognition complex), Avi-CBP-Orc1, biotinylated (budding yeast) (UniProt P54784)
# T1 sequence (chain, biotin on the Avi-tag (biotinylated by NLS-BirA in vivo, about 90%)): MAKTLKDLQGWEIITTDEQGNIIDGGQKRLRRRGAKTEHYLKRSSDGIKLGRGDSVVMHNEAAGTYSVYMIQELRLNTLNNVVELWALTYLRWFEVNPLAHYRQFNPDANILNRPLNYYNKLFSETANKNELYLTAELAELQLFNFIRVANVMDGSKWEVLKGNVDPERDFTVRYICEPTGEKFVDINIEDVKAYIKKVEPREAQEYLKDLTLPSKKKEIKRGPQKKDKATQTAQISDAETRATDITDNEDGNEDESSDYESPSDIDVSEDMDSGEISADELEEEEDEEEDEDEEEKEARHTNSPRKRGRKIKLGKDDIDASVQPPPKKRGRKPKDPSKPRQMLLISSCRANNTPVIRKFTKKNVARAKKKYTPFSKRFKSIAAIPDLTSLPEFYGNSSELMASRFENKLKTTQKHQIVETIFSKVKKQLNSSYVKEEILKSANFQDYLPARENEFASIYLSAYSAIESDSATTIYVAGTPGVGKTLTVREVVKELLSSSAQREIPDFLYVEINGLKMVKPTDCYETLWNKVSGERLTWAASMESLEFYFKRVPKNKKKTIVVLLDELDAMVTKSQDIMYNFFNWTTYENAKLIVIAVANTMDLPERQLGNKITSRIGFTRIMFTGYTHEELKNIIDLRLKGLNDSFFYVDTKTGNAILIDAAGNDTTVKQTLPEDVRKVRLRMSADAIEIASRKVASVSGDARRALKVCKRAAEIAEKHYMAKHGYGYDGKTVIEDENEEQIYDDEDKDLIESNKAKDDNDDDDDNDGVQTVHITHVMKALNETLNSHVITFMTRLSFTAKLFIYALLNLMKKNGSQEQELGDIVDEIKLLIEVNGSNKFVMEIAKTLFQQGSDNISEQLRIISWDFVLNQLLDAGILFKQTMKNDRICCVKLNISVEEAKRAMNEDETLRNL
# B1: Orc3 (subunit of the origin recognition complex) (protein, UniProt P54790 1-616)
# chain: MSDLNQSKKMNVSEFADAQRSHYTVYPSLPQSNKNDKHIPFVKLLSGKESEVNVEKRWELYHQLHSHFHDQVDHIIDNIEADLKAEISDLLYSETTQKRRCFNTIFLLGSDSTTKIELKDESSRYNVLIELTPKESPNVRMMLRRSMYKLYSAADAEEHPTIKYEDINDEDGDFTEQNNDVSYDLSLVENFKRLFGKDLAMVFNFKDVDSINFNTLDNFIILLKSAFKYDHVKISLIFNINTNLSNIEKNLRQSTIRLLKRNYHKLDVSSNKGFKYGNQIFQSFLDTVDGKLNLSDRFVEFILSKMANNTNHNLQLLTKMLDYSLMSYFFQNAFSVFIDPVNVDFLNDDYLKILSRCPTFMFFVEGLIKQHAPADEILSLLTNKNRGLEEFFVEFLVRENPINGHAKFVARFLEEELNITNFNLIELYHNLLIGKLDSYLDRWSACKEYKDRLHFEPIDTIFQELFTLDNRSGLLTQSIFPSYKSNIEDNLLSWEQVLPSLDKENYDTLSGDLDKIMAPVLGQLFKLYREANMTINIYDFYIAFRETLPKEEILNFIRKDPSNTKLLELAETPDAFDKVALILFMQAIFAFENMGLIKFQSTKSYDLVEKCVWRGI
# B2: Orc4 (subunit of the origin recognition complex) (protein, UniProt P54791 1-529)
# chain: MTISEARLSPQVNLLPIKRHSNEEVEETAAILKKRTIDNEKCKDSDPGFGSLQRRLLQQLYGTLPTDEKIIFTYLQDCQQEIDRIIKQSIIQKESHSVILVGPRQSYKTYLLDYELSLLQQSYKEQFITIRLNGFIHSEQTAINGIATQLEQQLQKIHGSEEKIDDTSLETISSGSLTEVFEKILLLLDSTTKTRNEDSGEVDRESITKITVVFIFDEIDTFAGPVRQTLLYNLFDMVEHSRVPVCIFGCTTKLNILEYLEKRVKSRFSQRVIYMPQIQNLDDMVDAVRNLLTVRSEISPWVSQWNETLEKELSDPRSNLNRHIRMNFETFRSLPTLKNSIIPLVATSKNFGSLCTAIKSCSFLDIYNKNQLSNNLTGRLQSLSDLELAILISAARVALRAKDGSFNFNLAYAEYEKMIKAINSRIPTVAPTTNVGTGQSTFSIDNTIKLWLKKDVKNVWENLVQLDFFTEKSAVGLRDNATAAFYASNYQFQGTMIPFDLRSYQMQIILQELRRIIPKSNMYYSWTQL
# B3: Orc5 (subunit of the origin recognition complex) (protein, UniProt P50874 1-479)
# chain: MNVTTPEVAFREYQTNCLASYISADPDITPSNLILQGYSGTGKTYTLKKYFNANPNLHAVWLEPVELVSWKPLLQAIARTVQYKLKTLYPNIPTTDYDPLQVEEPFLLVKTLHNIFVQYESLQEKTCLFLILDGFDSLQDLDAALFNKYIKLNELLPKDSKINIKFIYTMLETSFLQRYSTHCIPTVMFPRYNVDEVSTILVMSRCGELMEDSCLRKRIIEEQITDCTDDQFQNVAANFIHLIVQAFHSYTGNDIFALNDLIDFKWPKYVSRITKENIFEPLALYKSAIKLFLSTDDNLSENGQGESAITTNRDDLENSQTYDLSIISKYLLIASYICSYLEPRYDASIFSRKTRIIQGRAAYGRRKKKEVNPRYLQPSLFAIERLLAIFQAIFPIQGKAESGSLSALREESLMKANIEVFQNLSELHTLKLIATTMNKNIDYLSPKVRWKVNVPWEIIKEISESVHFNISDYFSDIHE
# What was measured:
# [1] = target: Rfa1 (subunit of replication protein A), CBP-TEV-Rfa1 (budding yeast) (UniProt P22336); assay: co-purification (tandem affinity purification, then gel filtration); RPA subunits co-expressed in yeast; whole-cell extract on calmodulin affinity resin with 2 mM CaCl2 (CBP on Rfa1), eluted with 2 mM EDTA and 2 mM EGTA; then anti-Flag M2 affinity gel (3×Flag on Rfa2), eluted with 0.5 mg/ml 3×Flag peptide; then Superdex 200 10/300 GL; binding buffer 25 mM Tris-HCl pH 7.2, 10% glycerol, 1 mM DTT, 500 mM NaCl; 4°C; Coomassie-stained gel
# [2] = target: Rfa2 (subunit of replication protein A), Rfa2-3×FLAG-Avi, biotinylated (budding yeast) (UniProt P26754); assay: as above
# [3] = target: T1, Orc1 (subunit of the origin recognition complex), Avi-CBP-Orc1, biotinylated (budding yeast); assay: co-purification (calmodulin affinity purification); ORC subunits co-expressed in yeast; purified on calmodulin affinity resin by the CBP tag on Orc1, protocol of Frigola et al. (2013); Coomassie-stained gel
Molecule,binding [1],binding [2],binding [3]
"Rfa2 (subunit of replication protein A), Rfa2-3×FLAG-Avi, biotinylated (from UniProt P26754 1-273)",binds,,
Rfa3 (subunit of replication protein A) (from UniProt P26755 1-122),binds,binds,
B1,,,binds
B2,,,binds
B3,,,binds
